The list is a part of this screen's results and no random one: it is rich in T/C values a quarter to a half above the control, in often repeated tests (any T/C) and in doses without a T/C. Other doses and runs of a compound stand elsewhere. T/C is the treated group as % of the vehicle group. Some entries give survivors of the animals treated and no T/C: the source files T/C as zero there, which appears to mark a toxic dose or a test without result, not a measured value. Some doses without a T/C left all or most animals alive at the check, yet need not have been tolerated: the source hardly ever lists a survival T/C far under the control, and the zero likely stands for such cases as well. Counts of survivors are from the toxicity check (mostly the fifth day) where no day follows; animals may have died later. Schedules are NCI's codes, taken here to give the interval after Q, in days (D) or hours (H), and the number of doses after X. Some entries hold several experiments; the values are given in rising order. Some structures stand for samples that the source files as different forms (salt, stereo form or complex); doses refer to the form tested. Marks such as (2×) say how often a value occurs here. Where survival is the endpoint, the PubChem record calls one and a half times the control and up active, and a quarter to a half above the control has no call in these data; cut-offs in other NCI protocols can differ.

These results are taken from PubChem BioAssay AID330 (DTP/NCI, 2004).

In the experiment the test system is P388 leukemia ip, CD2F1 mice, survival T/C. Description: NCI In Vivo Anticancer Drug Screen. Data for tumor model P388 Leukemia (intraperitoneal) in CD2F1 (CDF1) mice. Particulars: T/C endpoint: median survival time, higher T/C = longer survival.
The mark [1] stands for this setting: dose: 50.0 mg/kg/injection, schedule: Q01DX009 (ip), vehicle: saline with Tween-80.
The mark [2] stands for this setting: dose: 400.0 mg/kg/injection, schedule: Q01DX009 (ip), vehicle: saline.
[3] abbreviates: dose: 100.0 mg/kg/injection, schedule: Q01DX009 (ip), vehicle: saline with Tween-80.

As for `CC[C@@]1(O)C[C@H](OC2CC(N(C)C)C(OC3CC(O)C(OC4CCC(=O)C(C)O4)C(C)O3)C(C)O2)c2c(cc3c(c2O)C(=O)c2c(O)ccc(O)c2C3=O)[C@H]1C(=O)OC` (stereo partly specified), the T/C reads like this: (dose: 1.0 mg/kg/injection, schedule: Q04DX003 (ip), vehicle: saline with Tween-80) 135, 136, 144, 148 % of control; (dose: 1.56 mg/kg/injection, schedule: Q04DX003 (ip), vehicle: saline) 129 and 144 % of control; (dose: 1.56 mg/kg/injection, schedule: Q04DX003 (ip), vehicle: water, evaluated on day 30) 136 % of control; (dose: 1.56 mg/kg/injection, schedule: Q04DX003 (ip), vehicle: water, evaluated on day 45) 142 % of control; (dose: 2.0 mg/kg/injection, schedule: Q04DX003 (ip), vehicle: saline with Tween-80) 142 and 146 % of control; (dose: 2.59 mg/kg/injection, schedule: Q04DX003 (ip), vehicle: saline) 127, 138, 144 % of control. Also, the T/C (dose: 2.59 mg/kg/injection, schedule: Q04DX003 (ip), vehicle: water) was 143 % of control and the T/C (dose: 7.2 mg/kg/injection, schedule: Q04DX003 (ip), vehicle: saline) was 144 % of control. Also, the survivor count reads like this: (dose: 8.0 mg/kg/injection, schedule: Q04DX003 (ip), vehicle: saline with Tween-80) 6 of 6 (2×); (dose: 12.0 mg/kg/injection, schedule: Q04DX003 (ip), vehicle: saline) 8 of 8; (dose: 12.0 mg/kg/injection, schedule: Q04DX003 (ip), vehicle: water) 6 of 8; (dose: 16.0 mg/kg/injection, schedule: Q04DX003 (ip), vehicle: saline with Tween-80) 2 of 6 and 6 of 6.

As for `Cc1cc(N(CCCl)CCCl)ccc1N=Nc1ccccc1C(=O)[O-].Cc1cc(N(CCCl)CCCl)ccc1N=Nc1ccccc1C(=O)[O-].[Cu+2]`, the T/C is 125 % of control (dose: 3.0 mg/kg/injection, schedule: Q04DX003 (ip), vehicle: saline with Tween-80) and 130 % of control (dose: 6.0 mg/kg/injection, schedule: Q04DX003 (ip), vehicle: saline with Tween-80). The survivor count under setting [1] was 5 of 6; the survivor count (dose: 100.0 mg/kg/injection, schedule: Q04DX003 (ip), vehicle: saline with Tween-80) is on record as 6 of 6; the survivor count (dose: 200.0 mg/kg/injection, schedule: Q04DX003 (ip), vehicle: saline with Tween-80) is recorded as 6 of 6; the survivor count (dose: 400.0 mg/kg/injection, schedule: Q04DX003 (ip), vehicle: saline with Tween-80) is 6 of 6.

As to `CP1(=O)CCc2c1ccc1ccccc21` (stereo unspecified), where the note is “dose: 400.0 mg/kg/injection, schedule: Q04DX002 (ip), vehicle: saline”, the survivor count was 2 of 6.

With `COc1ccc(OC)c(NCCCN2C(=O)c3ccccc3C2=O)c1`, the survivor count (dose: 240.0 mg/kg/injection, schedule: Q01DX005 (ip), vehicle: saline with Tween-80) is given as 6 of 6.

Regarding `c1ccc2c(c1)[nH]c1c2nc2ccccn21`, the survivor count is 1 of 6 and 2 of 6 (dose: 100.0 mg/kg/injection, schedule: Q01DX005 (ip), vehicle: Klucel (hydroxypropylcellulose) (HPC)); 0 of 6, 1 of 6, 1 of 4 (dose: 200.0 mg/kg/injection, schedule: Q01DX005 (ip), vehicle: Klucel (hydroxypropylcellulose) (HPC)).

With `Cc1cc2c(cc1C)NC1C(=O)C(c3ccc(Cl)c(Cl)c3)OC1=N2` (stereo unspecified), the survivor count runs as follows: (dose: 60.0 mg/kg/injection, schedule: Q01DX005 (ip), vehicle: Klucel (hydroxypropylcellulose) (HPC)) 6 of 6; (dose: 120.0 mg/kg/injection, schedule: Q01DX005 (ip), vehicle: Klucel (hydroxypropylcellulose) (HPC)) 6 of 6.

In the case of `C=CC1(O)CCCCC1`, the survivor count under setting [2] is on record as 2 of 6.

On to `CCC(=C(c1ccc(OCCN(C)C)cc1)c1cccc(O)c1)c1ccccc1` (mixture of isomers), for which the survivor count (dose: 240.0 mg/kg/injection, schedule: Q01DX005 (ip), vehicle: Klucel (hydroxypropylcellulose) (HPC)) is on record as 6 of 6.

As for `O=S(=O)(O)O.[Cu+2].[NH-]CC[N-]CC[N-]CC[NH-]`, the survivor count runs as follows: (dose: 50.0 mg/kg/injection, schedule: Q04DX002 (ip), vehicle: saline) 0 of 6; (dose: 100.0 mg/kg/injection, schedule: Q04DX002 (ip), vehicle: saline) 0 of 6; (dose: 200.0 mg/kg/injection, schedule: Q04DX002 (ip), vehicle: saline) 0 of 6.

Regarding `COC(=O)c1cc(C=C(C)C)[nH]c(=O)c1C#N`, the survivor count (dose: 120.0 mg/kg/injection, schedule: Q01DX005 (ip), vehicle: saline) is given as 3 of 6 and the survivor count (dose: 240.0 mg/kg/injection, schedule: Q01DX005 (ip), vehicle: saline) is recorded as 0 of 6.

As to `CCN(CC)CCNc1cc(O)c2c(c1O)C(=O)c1ccccc1C2=O`, the survivor count was 2 of 5 (dose: 200.0 mg/kg/injection, schedule: Q04DX002 (ip), vehicle: saline with Tween-80) and 0 of 5 (dose: 400.0 mg/kg/injection, schedule: Q04DX002 (ip), vehicle: saline with Tween-80).

`O=C(CC(=O)C(F)(F)F)c1cccs1`: the survivor count is listed as 1 of 6 under setting [3]; 0 of 6 (dose: 200.0 mg/kg/injection, schedule: Q01DX009 (ip), vehicle: saline with Tween-80); 0 of 6 (dose: 400.0 mg/kg/injection, schedule: Q01DX009 (ip), vehicle: saline with Tween-80).

For `C[n+]1ccc(-c2cc[n+](C)cc2)cc1`, the survivor count was 5 of 6 and 6 of 6 (dose: 6.25 mg/kg/injection, schedule: Q01DX009 (ip), vehicle: saline); 4 of 6 (dose: 12.5 mg/kg/injection, schedule: Q01DX009 (ip), vehicle: saline); 1 of 6 and 3 of 6 (dose: 25.0 mg/kg/injection, schedule: Q01DX009 (ip), vehicle: saline); 0 of 6 and 6 of 6 (dose: 50.0 mg/kg/injection, schedule: Q01DX009 (ip), vehicle: saline); 0 of 6 and 6 of 6 (dose: 100.0 mg/kg/injection, schedule: Q01DX009 (ip), vehicle: saline); 0 of 6 (dose: 200.0 mg/kg/injection, schedule: Q01DX009 (ip), vehicle: saline). For the same compound, the survivor count under setting [2] is 0 of 6.

Consider `O=NN(C(=O)NC1CCC(O)CC1)C1CCC(O)CC1` (stereo unspecified), for which the survivor count (dose: 400.0 mg/kg/injection, schedule: Q01DX001 (ip), vehicle: distilled water + Tween-80) is on record as 0 of 6.

For `CCCCOP(O)(=S)OCCCC.[Sm]`, under “dose: 400.0 mg/kg/injection, schedule: Q01DX001 (ip), vehicle: saline with Tween-80”, the survivor count is given as 6 of 6.

Consider `O=C(Nc1ccc([N+](=O)[O-])cc1)Nc1nccs1`, for which the T/C was 127 % of control (dose: 25.0 mg/kg/injection, schedule: Q01DX009 (ip), vehicle: distilled water + Tween-80); 130 and 142 % of control (dose: 50.0 mg/kg/injection, schedule: Q01DX009 (ip), vehicle: distilled water + Tween-80). Further, the survivor count (dose: 100.0 mg/kg/injection, schedule: Q01DX009 (ip), vehicle: distilled water + Tween-80) is recorded as 3 of 6; the survivor count (dose: 200.0 mg/kg/injection, schedule: Q01DX009 (ip), vehicle: distilled water + Tween-80) is 0 of 6 and 1 of 6; the survivor count (dose: 400.0 mg/kg/injection, schedule: Q01DX009 (ip), vehicle: distilled water + Tween-80) is reported as 0 of 6.

On to `COc1cc(Cc2nnc(N)[nH]c2=O)cc(OC)c1OC`, for which the survivor count reads like this: (dose: 25.0 mg/kg/injection, schedule: Q01DX009 (ip), vehicle: saline with Tween-80) 6 of 6; under setting [1], 5 of 6.

In the case of `CN1CC2(C)CCCC(C)(C1)C2O` (stereo unspecified), the survivor count (dose: 200.0 mg/kg/injection, schedule: Q01DX005 (ip), vehicle: saline with Tween-80) is 0 of 6.

Regarding `C=C1C(=O)C23C(OC(=O)c4ccccc4)C1CCC2C12COC3(O)C(O)C1C(C)(C)CCC2O` (stereo unspecified), the survivor count (dose: 30.0 mg/kg/injection, schedule: Q01DX009 (ip), vehicle: saline with Tween-80) is listed as 1 of 6.

`[Se]c1nc(N2CCOCC2)ncc1-c1ccccc1`: the survivor count under setting [1] was 6 of 6 and the survivor count under setting [3] is 6 of 6.
